# The other results are listed elsewhere or left out.
# Tests used:
# Assay in all cases: glycan array binding signal (z-score within array); higher = stronger binding
# Details in all cases: glycan notation: IUPAC condensed, linker removed
# [1] = molecular target: Gal(b1-4)GlcNAc(b1-2)Man(a1-3)[Gal(b1-4)GlcNAc(b1-2)Man(a1-6)]Man(b1-4)GlcNAc(b1-4)GlcNAc
# Outline: (§1)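 The binding signal is a Z-score computed within each array and averaged over linkers. Arrays of the same protein sequence at different concentrations or buffers were also averaged together. Data originate from 3228 arrays in the Consortium for Functional Glycomics database, kept only where the protein sequence was available.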
# [2] = molecular target: Gal(b1-4)GlcNAc(b1-2)Man(a1-3)[Gal(b1-4)GlcNAc(b1-2)Man(a1-6)]Man(b1-4)GlcNAc(b1-4)[Fuc(a1-6)]GlcNAc
# Outline: as §1
# [3] = molecular target: Gal(b1-4)GlcNAc(b1-2)Man(a1-3)[Gal(b1-4)GlcNAc(b1-2)Man(a1-6)][Gal(b1-4)GlcNAc(b1-4)]Man(b1-4)GlcNAc(b1-4)[Fuc(a1-6)]GlcNAc
# Outline: as §1
# [4] = molecular target: Gal(b1-4)GlcNAc(b1-2)Man(a1-3)[Gal(b1-4)GlcNAc(b1-2)Man(a1-6)][GlcNAc(b1-4)]Man(b1-4)GlcNAc(b1-4)[Fuc(a1-6)]GlcNAc
# Outline: as §1
# [5] = molecular target: Gal(b1-4)GlcNAc(b1-2)Man(a1-3)[GlcNAc(b1-2)Man(a1-6)]Man(b1-4)GlcNAc(b1-4)GlcNAc
# Outline: as §1
# [6] = molecular target: Gal(b1-4)GlcNAc(b1-2)Man(a1-3)[GlcNAc(b1-4)][Gal(b1-4)GlcNAc(b1-2)Man(a1-6)]Man(b1-4)GlcNAc(b1-4)GlcNAc
# Outline: as §1
# [7] = molecular target: Gal(b1-4)GlcNAc(b1-2)Man(a1-3)[Man(a1-6)]Man(b1-4)GlcNAc(b1-4)GlcNAc
# Outline: as §1
# [8] = molecular target: Gal(b1-4)GlcNAc(b1-2)Man(a1-6)Man(b1-4)GlcNAc(b1-4)GlcNAc
# Outline: as §1
# [9] = molecular target: Gal(b1-4)GlcNAc(b1-2)Man(a1-6)[GlcNAc(b1-2)Man(a1-3)]Man(b1-4)GlcNAc(b1-4)GlcNAc
# Outline: as §1
# [10] = molecular target: Gal(b1-4)GlcNAc(b1-2)Man(a1-6)[Man(a1-3)]Man(b1-4)GlcNAc(b1-4)GlcNAc
# Outline: as §1
# [11] = molecular target: Gal(b1-4)GlcNAc(b1-2)[Gal(b1-4)GlcNAc(b1-4)]Man(a1-3)[Gal(b1-4)GlcNAc(b1-2)Man(a1-6)]Man(b1-4)GlcNAc(b1-4)GlcNAc
# Outline: as §1
# [12] = molecular target: Gal(b1-4)GlcNAc(b1-2)[Gal(b1-4)GlcNAc(b1-4)]Man(a1-3)[Gal(b1-4)GlcNAc(b1-2)[Gal(b1-4)GlcNAc(b1-6)]Man(a1-6)]Man(b1-4)GlcNAc(b1-4)GlcNAc
# Outline: as §1
# [13] = molecular target: Gal(b1-4)GlcNAc(b1-2)[Gal(b1-4)GlcNAc(b1-4)]Man(a1-3)[GlcNAc(b1-4)][Gal(b1-4)GlcNAc(b1-2)Man(a1-6)]Man(b1-4)GlcNAc(b1-4)GlcNAc
# Outline: as §1
# [14] = molecular target: Gal(b1-4)GlcNAc(b1-2)[Gal(b1-4)GlcNAc(b1-4)]Man(a1-3)[GlcNAc(b1-4)][Gal(b1-4)GlcNAc(b1-2)[Gal(b1-4)GlcNAc(b1-6)]Man(a1-6)]Man(b1-4)GlcNAc(b1-4)GlcNAc
# Outline: as §1
# [15] = molecular target: Gal(b1-4)GlcNAc(b1-2)[Gal(b1-4)GlcNAc(b1-6)]Man(a1-6)[Gal(b1-4)GlcNAc(b1-2)Man(a1-3)]Man(b1-4)GlcNAc(b1-4)GlcNAc
# Outline: as §1
# [16] = molecular target: Gal(b1-4)GlcNAc(b1-2)[Gal(b1-4)GlcNAc(b1-6)]Man(a1-6)[Gal(b1-4)GlcNAc(b1-2)Man(a1-3)]Man(b1-4)GlcNAc(b1-4)[Fuc(a1-6)]GlcNAc
# Outline: as §1
# [17] = molecular target: Gal(b1-4)GlcNAc(b1-2)[Gal(b1-4)GlcNAc(b1-6)]Man(a1-6)[GlcNAc(b1-4)][Gal(b1-4)GlcNAc(b1-2)Man(a1-3)]Man(b1-4)GlcNAc(b1-4)GlcNAc
# Outline: as §1
# [18] = molecular target: Gal(b1-4)GlcNAc(b1-2)[Gal(b1-4)GlcNAc(b1-6)]Man(a1-6)[GlcNAc(b1-4)][Gal(b1-4)GlcNAc(b1-2)[Gal(b1-4)GlcNAc(b1-4)]Man(a1-3)]Man(b1-4)GlcNAc(b1-4)[Fuc(a1-6)]GlcNAc
# Outline: as §1
# [19] = molecular target: Gal(b1-4)GlcNAc(b1-3)Gal(b1-3)GalNAc
# Outline: as §1
binder,measurement,setting,value
SP15308C-bot-338-23-338 (Bacteroides ovatus) (protein) DEWTDEQFKQLISFKTQPGGWGVTDVHVRYANSAKYTYNLPVLVSGSTDNTDDRLVSFSLRDDTLDILNFEKFGNRPELYFRELPQKYYSFPKELTIPAGQSHALLPIEFSLDGLDDSQKWALPLKVCEDANGTYAVNPRKYYRTAVLRPILFNEFSGRFSGSSLLGTMAGESDIKFSSTEIKLNVVTDSIVFFYAGQRTEDYEDRINYKVFLQFTGDKVDSKKDLYKMKIWAENEKLKFNSYSTPTYKVSSEMDATKTYLKHTYIVISDIDFDFVDYTSVPNYEIEYNMKGGLSVSRDLDTRKPDEDQGSDSKWW,glycan array binding signal (z-score),[1],-0.685
same,glycan array binding signal (z-score),[2],0.645
same,glycan array binding signal (z-score),[3],0.108
same,glycan array binding signal (z-score),[4],-0.388
same,glycan array binding signal (z-score),[5],-0.905
same,glycan array binding signal (z-score),[6],-0.483
same,glycan array binding signal (z-score),[7],-0.22
same,glycan array binding signal (z-score),[8],0.05
same,glycan array binding signal (z-score),[9],-0.346
same,glycan array binding signal (z-score),[10],-0.112
same,glycan array binding signal (z-score),[11],0.311
same,glycan array binding signal (z-score),[12],0.267
same,glycan array binding signal (z-score),[13],-0.338
same,glycan array binding signal (z-score),[14],0.342
same,glycan array binding signal (z-score),[15],-0.059
same,glycan array binding signal (z-score),[16],-0.048
same,glycan array binding signal (z-score),[17],-0.299
same,glycan array binding signal (z-score),[18],0.457
same,glycan array binding signal (z-score),[19],-0.244

# 2 records picked at random from the list so far:
binder,measurement,setting,value
SP15308C-bot-338-23-338 (Bacteroides ovatus) (protein) DEWTDEQFKQLISFKTQPGGWGVTDVHVRYANSAKYTYNLPVLVSGSTDNTDDRLVSFSLRDDTLDILNFEKFGNRPELYFRELPQKYYSFPKELTIPAGQSHALLPIEFSLDGLDDSQKWALPLKVCEDANGTYAVNPRKYYRTAVLRPILFNEFSGRFSGSSLLGTMAGESDIKFSSTEIKLNVVTDSIVFFYAGQRTEDYEDRINYKVFLQFTGDKVDSKKDLYKMKIWAENEKLKFNSYSTPTYKVSSEMDATKTYLKHTYIVISDIDFDFVDYTSVPNYEIEYNMKGGLSVSRDLDTRKPDEDQGSDSKWW,glycan array binding signal (z-score),[10],-0.112
same,glycan array binding signal (z-score),[14],0.342
